# Measured values reported in PubChem BioAssay AID2685 (National Center for Advancing Translational Sciences (NCATS), 2010).
# The campaign covered roughly 320,000 compounds. About 2,100 (0.66%) were called active. The shares of active, inactive and inconclusive entries below differ from those in the screen. The call rests on the fitted dose curve; in most records, active means well fitted inhibition curve with a large enough effect in the signal ratio, with a control signal flat (not every such curve was filed as active); inconclusive means small, poorly fitted or top-dose-only effect, or effect the other way, or a change in a side signal; inactive means flat fitted curve, though single readings scatter; the % refers to the signal ratio. Where the call is inconclusive, the potency comes from a doubtful curve fit.
# Test: qHTS Assay for Lipid Storage Modulators in Drosophila S3 Cells
# Settings: BODIPY lipid droplet fluorescence, 18-24 h, cells fed with added oleic acid; lipid storage change, negative = inhibition: at 46.1 µM (top of the series) unless noted
# Summary of the method: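 Drosophila S3 cells loaded with oleic acid (400 uM, as added) and compounds at several concentrations; lipid droplets imaged by 488-nm laser-scanning cytometry, 500–530 nm intensity and object ratio to cell channel. Percent activity normalized to 20 uM Triacsin C.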
# On the % scale 0 is the no-effect control and ±100 the full control effect; potency means the concentration at half of the fitted maximal effect.
Structure (SMILES),Potency,"lipid storage change, negative = inhibition"
CC1CCN(C(=O)CN(c2ccc3c(c2)OCCO3)S(=O)(=O)c2ccccc2)CC1,"inconclusive: 6.51 µM [activator, single point]",
COc1cccc(-n2c(SCC(=O)N3CCOCC3)nnc2-c2c[nH]c3ccccc23)c1,,inconclusive: -15%
COc1ccc(-n2c(=S)[nH]c3cc(C(=O)NCc4ccccc4)ccc3c2=O)c(OC)c1,,inactive
CCOc1ccc(S(=O)(=O)NCCN2CCOCC2)c2ccccc12,"inconclusive: 4.61 µM [falling, full curve, poor fit]",
O=C(CNC(=O)c1ccco1)NCC(=O)OCc1cccc(C(=O)Oc2ccccc2)c1,"inconclusive: 29.1 µM [cytotoxic, single point]",
CC(C)Oc1ccc(C2CC(=O)N(c3ccccc3)C2=O)cc1 (stereo not given),,inconclusive: 66.3%
Cc1ccccc1NC(=O)C1C2CCCC1C2c1ccccc1 (stereo not given),,inconclusive: -22.5%
CCN1C(=O)Cc2cc(S(=O)(=O)NCCc3ccccc3)ccc21,,inconclusive: -100%
O=C(Nc1ccccc1)Nc1ccc(F)c([N+](=O)[O-])c1,,inconclusive: 8.48%
CCOc1cccc2c1OC1(C)CC2NC(=O)N1c1cccc(C(=O)NCc2ccccn2)c1 (stereo not given),,inconclusive: 74.2%
N#Cc1ccc(S(=O)(=O)N2CCN(CC(=O)Nc3ccccc3C(=O)NC3CC3)CC2)cc1,,inconclusive: -17.7%
CCOC(=O)c1c(NC(=O)CSc2nnc(-c3c[nH]c4ccccc34)n2CC)sc2c1CCCC2,,inconclusive: -3.44%
COc1ccc(S(=O)(=O)Nc2ccccn2)cc1C,,inconclusive: 9.09%
Nc1cc([N+](=O)[O-])ccc1N1C(=O)CCCC1=O,,inconclusive: -3.7%
O=C(COc1ccccc1Cl)Nc1nnc(S(=O)(=O)N2CCCCCC2)s1,"inconclusive: 10.3 µM [falling, partial curve, poor fit]",
CC(C)OP(=O)(OC(C)C)C(O)c1cccc([N+](=O)[O-])c1 (stereo not given),,inconclusive: -21.4%
Cn1c(=O)cc(SCC(=O)N2CCCC2)c2ccc(Cl)cc21,"inconclusive: 29.1 µM [falling, single point]",
O=C(NNC(=O)c1cccc(-n2cccc2)c1)c1ccccc1,,inconclusive: 9.99%
COc1cc(C(CC(=O)Nc2ccccn2)N2Cc3ccccc3C2=O)cc(OC)c1OC (stereo not given),,inconclusive: -26.3% [cytotoxic]
CCCCn1c(N)c(S(=O)(=O)c2ccc(C)cc2)c2nc3ccccc3nc21,,inconclusive: 7.6%
O=S(=O)(Cc1ccccc1)Nc1ccc(S(=O)(=O)N2CCCC2)cc1,,inactive
COc1cc(-c2ccccc2)nc(N)n1,,inconclusive: 31.5%
CC(C)(C)NC(=O)CN(C(=O)CS(=O)CC(=O)Nc1ccc(F)cc1)c1ccccc1 (stereo not given),"inconclusive: 6.51 µM [cytotoxic, single point]",
CCOc1cc(NC(=S)Nc2ccccc2)c(OCC)cc1NC(=O)c1ccccc1,,inconclusive: 7.32%
COc1ccc(CNC(=O)C2CCN(S(=O)(=O)c3ccc4c(c3)CC(C)N4C(=O)C3CC3)CC2)cc1 (stereo not given),"inconclusive: 6.51 µM [activator, full curve]",

Structure (SMILES),Potency,"lipid storage change, negative = inhibition"
CCOC(=O)N1CCN(c2c(N3CCN(c4ccc(OC)cc4)CC3)c(=O)c2=O)CC1,,inactive
Cc1cc(Cl)ccc1Oc1nc(-c2ccccc2)ncc1S(C)(=O)=O,"inconclusive: 1.03 µM [activator, full curve]",
COc1cc(CN2CCCC(C(=O)c3ccc4c5c(cccc35)CC4)C2)cc(OC)c1O (stereo not given),,inconclusive: -94.1%
C=CCn1c(SCc2c(F)cccc2Cl)nnc1-c1ccco1,"inconclusive: 7.31 µM [activator, partial curve]",
Cc1ccc(C(=O)OC2CCOC2=O)cc1NC(=O)c1ccco1 (stereo not given),,inconclusive: 14.7%
CCOc1ccc(S(=O)(=O)N(CC)CC(=O)NCc2ccncc2)cc1C,"inconclusive: 29.1 µM [activator, single point]",
Cc1ccnc(NC(=O)c2ccc(OCC3CCCO3)cc2)c1 (stereo not given),,inconclusive
CCC(C(=O)OC)n1cnc2c(oc3ccccc32)c1=O (stereo not given),"inconclusive: 3.66 µM [falling, single point]",
Cc1ccc(S(=O)(=O)NCCC(=O)N2CCCCCCC2)cc1,,inconclusive: -14%
CCOC(=O)N1CCN(CC(=O)n2c(C)c(C)c3ccccc32)CC1,"inconclusive: 0.103 µM [falling, full curve, poor fit]",
Cc1ccc(OC(=O)N2CCOCC2)cc1,,inconclusive: -12.2%
Cc1ccc(N2C(=O)c3ccccc3C(C)(C)C2=O)cc1,,inconclusive: 61.6%
Cc1ccc(NC(=O)CNC2CCS(=O)(=O)C2)cc1C (stereo not given),,inconclusive: 15.3%
O=C(NNC(=O)c1ccncc1)c1ccccc1,,inconclusive: 12.8%
O=C(Nc1ccc2c(c1)OCO2)C1CCCN1C(=O)Nc1cccc(F)c1 (stereo not given),,inconclusive: 25.5%
CC(=O)Nc1ccc(NC(=O)COc2cc(O)c3c(c2)OC(C)(C)CC3=O)cc1,,inconclusive: 11.5%
Cc1cccc(NC(=O)C2CCCN(S(=O)(=O)c3cccs3)C2)c1C (stereo not given),"inconclusive: 29.1 µM [activator, single point]",
COc1ccc(CN2CCSCC2)c(OC)c1C,,inconclusive: 164%
Cn1cccc1C(=O)NC1CCCCCC1,"inconclusive: 23.1 µM [activator, single point]",
Cc1c(Cl)cccc1NC(=S)NCCC(c1ccccc1)c1ccccc1,,inconclusive: 1.72%
COc1ccc(C(=O)Cc2cc3ccccc3oc2=O)cc1,,inconclusive: 1.56%
COc1ccc(C(=O)Nc2ccc3oc(-c4cccc(F)c4)nc3c2)cc1OC,"inconclusive: 9.2 µM [activator, partial curve]",
C=CCSc1nc2c(cnn2-c2ccc(C)c(C)c2)c(=O)[nH]1,,inconclusive: -27.1%
CCc1nonc1NC(=O)c1oc2ccc(Br)cc2c1C,,inconclusive: 129%
COc1ccc(Cn2c(=S)[nH]c3ccccc32)cc1,,inconclusive: -7.45% [at 9.22 µM]

# Grouped by structure: the compounds so far containing a thiophene ring, fused or not (2)
Structure (SMILES),Potency,"lipid storage change, negative = inhibition"
CCOC(=O)c1c(NC(=O)CSc2nnc(-c3c[nH]c4ccccc34)n2CC)sc2c1CCCC2,,inconclusive: -3.44%
Cc1cccc(NC(=O)C2CCCN(S(=O)(=O)c3cccs3)C2)c1C (stereo not given),"inconclusive: 29.1 µM [activator, single point]",
